US20160046620A1, “METHODS OF CONTROLLING NEONICOTINOID RESISTANT PESTS” (SYNGENTA PARTICIPATIONS AG, priority 2013, published 2016)
Some results were stated once for a whole list of compounds, not compound by compound.

How the values were obtained:
[1] = tested on: FRC-P (Neonicotinoid resistant) strain of Myzus persicae; test: Control of neonicotinoid resistant green peach aphid, spray bioassay on pea seedlings / dose-response bioassay; type: in vivo; conditions: for control of the FRC-P (Neonicotinoid resistant) strain of Myzus persicae: 200 ppm; for resistance factor (RF80): FRC-P resistant vs standard susceptible strain of Myzus persicae, concentration for 80% mortality
[2] = tested on: Q-biotype (Neonicotinoid resistant) strain of Bemisia tabaci; test: Control of neonicotinoid resistant tobacco whitefly, preventive egg lay bioassay on cotton / dose-response bioassay; type: in vivo; conditions: for control of the Q-biotype (Neonicotinoid resistant) strain of Bemisia tabaci: 200 ppm; for resistance factor: Q-biotype resistant vs standard susceptible strain of Bemisia tabaci

Row | Structure (SMILES) | control of the FRC-P (Neonicotinoid resistant) strain of Myzus persicae [1] | resistance factor (RF80) [1] | control of the Q-biotype (Neonicotinoid resistant) strain of Bemisia tabaci [2] | resistance factor [2]
1 | N#CCN1[C@@H]2CC[C@H]1C[C@](C#N)(c1cncc(C#N)c1)C2 [Compound 1.003] | at least 80% | ≤ 20 | at least 80% | ≤ 20
2 | CSC(=S)N1[C@@H]2CC[C@H]1C[C@](C#N)(c1cncc(C#N)c1)C2 [Compound 1.014] | at least 80% | ≤ 20 | – | –
3 | C#CCN1[C@@H]2CC[C@H]1C[C@](C#N)(c1cncc(C#N)c1)C2 [Compound 1.074, (1S,3S,5R)-3-(5-cyano-pyridin-3-yl)-8-prop-2-ynyl-8-aza-bicyclo[3.2.1]octane-3-carbonitrile] | at least 80% | ≤ 20 | at least 80% | ≤ 20
4 | N#Cc1cncc([C@]2(C#N)C[C@H]3CC[C@@H](C2)N3CC(F)(F)F)c1 [Compound 1.085] | at least 80% | ≤ 20 | at least 80% | ≤ 20
5 | CCOC(N1[C@@H]2CC[C@H]1C[C@](C#N)(c1cncc(C#N)c1)C2)C(F)(F)F (some centres unmarked) [Compound 1.110] | at least 80% | ≤ 20 | at least 80% | ≤ 20
6 | N#Cc1cncc([C@]2(C#N)C[C@H]3CC[C@@H](C2)N3C2CS(=O)(=O)C2)c1 [Compound 1.144] | at least 80% | ≤ 20 | – | –
7 | N#Cc1cncc([C@]2(C#N)C[C@H]3CC[C@@H](C2)N3C=O)c1 [Compound 1.172] | at least 80% | ≤ 20 | at least 80% | ≤ 20
8 | CN1[C@@H]2CC[C@H]1C[C@](C#N)(c1cncc(C#N)c1)C2 [Compound 1.175] | at least 80% | ≤ 20 | – | –
9 | N#CCN1[C@@H]2C=C[C@H]1C[C@](C#N)(c1cncc(C#N)c1)C2 [Compound 2.003] | at least 80% | ≤ 20 | at least 80% | ≤ 20
10 | N#Cc1cncc([C@]2(C#N)C[C@H]3C=C[C@@H](C2)N3CC(F)F)c1 [Compound 2.045] | at least 80% | ≤ 20 | – | –
11 | C#CCN1[C@@H]2C=C[C@H]1C[C@](C#N)(c1cncc(C#N)c1)C2 [Compound 2.074] | at least 80% | ≤ 20 | at least 80% | ≤ 20
12 | N#Cc1cncc([C@]2(C#N)C[C@H]3C=C[C@@H](C2)N3CC(F)(F)F)c1 [Compound 2.085] | at least 80% | ≤ 20 | – | –
13 | CC#CCN1[C@@H]2C=C[C@H]1C[C@](C#N)(c1cncc(C#N)c1)C2 [Compound 2.095] | at least 80% | ≤ 20 | at least 80% | ≤ 20
14 | CCC#CCN1[C@@H]2C=C[C@H]1C[C@](C#N)(c1cncc(C#N)c1)C2 [Compound 2.098] | at least 80% | ≤ 20 | – | –
15 | CCOC(=O)C(C)N1[C@@H]2C=C[C@H]1C[C@](C#N)(c1cncc(C#N)c1)C2 (some centres unmarked) [Compound 2.103] | at least 80% | ≤ 20 | at least 80% | ≤ 20
16 | COCCN1[C@@H]2C=C[C@H]1C[C@](C#N)(c1cncc(C#N)c1)C2 [Compound 2.117] | at least 80% | ≤ 20 | at least 80% | ≤ 20
17 | C=C(C)CN1[C@@H]2C=C[C@H]1C[C@](C#N)(c1cncc(C#N)c1)C2 [Compound 2.119] | at least 80% | ≤ 20 | at least 80% | ≤ 20
18 | N#Cc1cncc([C@]2(C#N)C[C@H]3C=C[C@@H](C2)N3C/C=C\Cl)c1 [Compound 2.121] | at least 80% | ≤ 20 | at least 80% | ≤ 20
19 | CSCCN1[C@@H]2C=C[C@H]1C[C@](C#N)(c1cncc(C#N)c1)C2 [Compound 2.133] | at least 80% | ≤ 20 | at least 80% | ≤ 20
20 | C=C(Cl)CN1[C@@H]2C=C[C@H]1C[C@](C#N)(c1cncc(C#N)c1)C2 [Compound 2.151] | at least 80% | ≤ 20 | – | –

Row | Structure (SMILES) | control of the FRC-P (Neonicotinoid resistant) strain of Myzus persicae [1] | resistance factor (RF80) [1] | control of the Q-biotype (Neonicotinoid resistant) strain of Bemisia tabaci [2] | resistance factor [2]
21 | CCC(=O)CN1[C@@H]2C=C[C@H]1C[C@](C#N)(c1cncc(C#N)c1)C2 [Compound 2.152] | at least 80% | ≤ 20 | – | –
22 | CN(C)C(=O)CN1[C@@H]2C=C[C@H]1C[C@](C#N)(c1cncc(C#N)c1)C2 [Compound 2.153] | at least 80% | ≤ 20 | – | –
23 | N#Cc1cncc([C@]2(C#N)C[C@H]3C=C[C@@H](C2)N3CC2CCO2)c1 (some centres unmarked) [Compound 2.156] | at least 80% | ≤ 20 | at least 80% | ≤ 20
24 | N#Cc1cncc([C@]2(C#N)C[C@H]3C=C[C@@H](C2)N3C2CC2)c1 [Compound 2.170] | at least 80% | ≤ 20 | at least 80% | ≤ 20
25 | CCN1[C@@H]2C=C[C@H]1C[C@](C#N)(c1cncc(C#N)c1)C2 [Compound 2.171] | at least 80% | ≤ 20 | – | –
26 | N#Cc1cncc([C@]2(C#N)C[C@H]3C=C[C@@H](C2)N3C=O)c1 [Compound 2.172] | at least 80% | ≤ 20 | at least 80% | ≤ 20
27 | N#Cc1cncc(C2(C#N)CC3C=CC(C2)N3CC2CCC2)c1 (centres unmarked) [Compound 2.185] | at least 80% | ≤ 20 | at least 80% | ≤ 20
28 | CC#CCCN1[C@@H]2C=C[C@H]1C[C@](C#N)(c1cncc(C#N)c1)C2 [Compound 2.240] | – | – | at least 80% | ≤ 20
29 | N#Cc1cncc([C@]2(C#N)C[C@H]3C=C[C@@H](C2)N3C2CCC2)c1 [Compound 2.245] | at least 80% | ≤ 20 | at least 80% | ≤ 20
30 | N#Cc1cncc([C@]2(C#N)C[C@H]3C=C[C@@H](C2)N3CCF)c1 [Compound 2.246] | – | – | at least 80% | ≤ 20
31 | N#Cc1cncc([C@]2(C#N)C[C@H]3C=C[C@@H](C2)N3C2C=CCC2)c1 (some centres unmarked) [Compound 2.247] | – | – | at least 80% | ≤ 20
32 | CC(F)(F)CN1[C@@H]2C=C[C@H]1C[C@](C#N)(c1cncc(C#N)c1)C2 [Compound 2.252] | – | – | at least 80% | ≤ 20
33 | CNC(=O)C(C)N1[C@@H]2C=C[C@H]1C[C@](C#N)(c1cncc(C#N)c1)C2 (some centres unmarked) [Compound 2.255] | – | – | at least 80% | ≤ 20
34 | CSC(C)CN1[C@@H]2C=C[C@H]1C[C@](C#N)(c1cncc(C#N)c1)C2 (some centres unmarked) [Compound 2.256] | – | – | at least 80% | ≤ 20
35 | N#Cc1cncc([C@]2(C#N)C[C@H]3C=C[C@@H](C2)N3CC2(C#N)CC2)c1 [Compound 2.261] | – | – | at least 80% | ≤ 20
36 | C[S+]([O-])CCN1[C@@H]2C=C[C@H]1C[C@](C#N)(c1cncc(C#N)c1)C2 (some centres unmarked) [Compound 2.262] | – | – | at least 80% | ≤ 20
37 | CCSCCN1[C@@H]2C=C[C@H]1C[C@](C#N)(c1cncc(C#N)c1)C2 [Compound 2.263] | – | – | at least 80% | ≤ 20
38 | O=[N+]([O-])NC1=NCCN1Cc1ccc(Cl)nc1 [Imidacloprid, reference compound] | < 80% | > 64 | < 80% | > 64
39 | N#C/N=C1\SCCN1Cc1ccc(Cl)nc1 [Thiacloprid, reference compound] | < 80% | – | < 80% | –
